Laboratory results: publication PMC7871608
These are yes or no findings as the source states them, for the method shown. In cells and extracts the contact can be indirect. Here binding means that the protein was enriched with, or labelled near, the bait; the list need not be complete.

The chains behind the UniProt entries cited, without tags or fusion partners. Residues count along the entry.
UniProt Q96AY3, residues 27-582: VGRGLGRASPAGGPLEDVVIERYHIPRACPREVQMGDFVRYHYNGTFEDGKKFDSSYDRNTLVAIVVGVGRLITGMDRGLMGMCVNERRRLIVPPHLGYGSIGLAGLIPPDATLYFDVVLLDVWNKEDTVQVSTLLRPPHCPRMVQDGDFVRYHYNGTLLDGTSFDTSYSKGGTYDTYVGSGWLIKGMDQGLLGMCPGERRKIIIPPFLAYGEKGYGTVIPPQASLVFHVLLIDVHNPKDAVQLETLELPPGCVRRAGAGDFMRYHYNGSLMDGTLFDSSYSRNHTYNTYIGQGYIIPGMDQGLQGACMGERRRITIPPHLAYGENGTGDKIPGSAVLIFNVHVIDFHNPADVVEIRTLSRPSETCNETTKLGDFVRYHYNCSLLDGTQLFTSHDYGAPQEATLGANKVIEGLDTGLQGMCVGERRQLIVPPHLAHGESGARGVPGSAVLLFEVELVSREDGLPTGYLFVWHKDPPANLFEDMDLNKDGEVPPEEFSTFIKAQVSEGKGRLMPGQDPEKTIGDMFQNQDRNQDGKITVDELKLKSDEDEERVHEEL

Target: FKBP10 used as bait in the GST-pull down (UniProt Q96AY3)
Test: affinity purification with mass spectrometry; GST-pull down from glioma cells followed by LC-MS/MS; no methods given

B1: Heat shock protein 47 (protein, UniProt P50454 19-418)
chain: AEVKKPAAAAAPGTAEKLSPKAATLAERSAGLAFSLYQAMAKDQAVENILVSPVVVASSLGLVSLGGKATTASQAKAVLSAEQLRDEEVHAGLGELLRSLSNSTARNVTWKLGSRLYGPSSVSFADDFVRSSKQHYNCEHSKINFRDKRSALQSINEWAAQTTDGKLPEVTKDVERTDGALLVNAMFFKPHWDEKFHHKMVDNRGFMVTRSYTVGVMMMHRTGLYNYYDDEKEKLQIVEMPLAHKLSSLIILMPHHVEPLERLEKLLTKEQLKIWMGKMQKKAVAISLPKGVVEVTHDLQKHLAGLGLTEAIDKNKADLSRMSGKKDLYLASVFHATAFELDTDGNPFDQDIYGREELRSPKLFYADHPFIFLVRDTQSGSLLFIGRLVRPKGDKMRDEL
  binding: binds
